Reference: US10160867B2, “Benzoxaborole-containing coating resistant to cellulose-supportable fungus” (THE PENN STATE RESEARCH FOUNDATION, priority 2015, dated 2018)
“And” between values parts separate entries of the source, which are not always exact repeats. Equal entries are not always repeated. At least one read-out could not be matched to a standard name with certainty.

Legend:
Penicillium chrysogenum = experiment: Fungus resistance test for painted surfaces containing antifungal additives (defacement rating); format: cell-based; set-up: key: 10 = no defacement, 0 = completely defaced; conditions: +200 μg/mL in Olympic Home paint; 7 days
Method: (§1) A Defacement Rating is measured by estimating the percentage of surface defacement with 10 being no defacement and 0 begin completely defaced.
(§2) This test was used to evaluate the resistance of paint films containing antifungal additives to surface fungal growth.
(§3) Olympic® Home interior flat latex paint (PPG Industries, Pittsburgh, Pa.) and Valspar® QuikHide White flat interior paint (Valspar Corporation, Minneapolis, Minn.) were used for all studies unless otherwise noted. Stock solutions of the antifungal additives of interest were prepared in reagent grade dimethyl sulfoxide (DMSO; Alfa Aesar, Ward Hill, Mass.). Additives were spiked (by adding appropriate amounts of the antifungal stock solutions) into the liquid paint at specified concentrations. Samples of the additive-spiked paint were vigorously mixed with a vortex mixer for at least one minute to ensure uniform dispersion of the additive in the paint. […]
(§4) The paint coatings were evaluated against three representative cellulose-supportable fungi: Stachybotrys chartarum, Penicillium chrysogenum, and Alternaria alternata. […]
(§5) A spore suspension of each of these fungi was prepared by pouring a 20-mL portion of autoclaved deionized water containing 0.01% Tween® 20 onto a subculture of each fungal species. Spores were counted with the use of a hemocytometer (Hausser Scientific, Horsham, Pa.) under a compound light microscope. […]

Stachybotrys chartarum = experiment: as above; format: cell-based; set-up: key: 10 = no defacement, 0 = completely defaced; conditions: +100 μg/mL in Olympic Home paint; 21 days
Method: as §1, §2, §3, §4, §5

For O=C1C2CC=CCC2C(=O)N1SC(Cl)(Cl)Cl (centres unmarked) [Captan], the “Average defacement rating ± standard deviation” value (Penicillium chrysogenum) was 9.8 ± 0.4 and 5.3 ± 4.0.
In the case of OB1OCc2cc(Cl)ccc21 [Compound B8, 5-chloro-1,3-dihydro-2,1-benzoxaborol-1-ol], the “Average defacement rating ± standard deviation” value (Stachybotrys chartarum) was 7.7±2.6 and 7.1 ± 2.6.
